Values joined by “and” are separate entries in the source; they are usually repeats but may differ in a detail not shown here. Identical values can stand only once. This list was built around the results that the source calls inconclusive (neither active nor inactive); the mix of calls is not that of the screen. For some assays here: A potency beside an inconclusive call is a rough fit, not a confirmed value. The source holds several records for some structures; these can differ, active in one and inactive in another. Active and inactive are the calls of the source. Unless noted, calls follow the shape of the full dose curve.
How the values were obtained:
[1] = p53 small molecule agonists, cell-based qHTS assay with rat liver microsomes: qHTS cell viability counter screen (AID 1963580); also: nearly all actives have a fitted effect of over 45% in size; also: potency is read from the fitted curve at half-maximal effect
Procedure, shortened: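 After the beta-lactamase ratio was read, CellTiter-Glo was added to the same wells and luminescence measured at 30 min; cells had been treated 16 h at 37 C with compounds, rat liver microsomes and NADPH (0.5 mg/mL final each).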

The chains behind the UniProt entries cited, without tags or fusion partners. Where a name states a change or a piece, a line headed by the entry shows the natural chain unless it says otherwise.
UniProt P11229: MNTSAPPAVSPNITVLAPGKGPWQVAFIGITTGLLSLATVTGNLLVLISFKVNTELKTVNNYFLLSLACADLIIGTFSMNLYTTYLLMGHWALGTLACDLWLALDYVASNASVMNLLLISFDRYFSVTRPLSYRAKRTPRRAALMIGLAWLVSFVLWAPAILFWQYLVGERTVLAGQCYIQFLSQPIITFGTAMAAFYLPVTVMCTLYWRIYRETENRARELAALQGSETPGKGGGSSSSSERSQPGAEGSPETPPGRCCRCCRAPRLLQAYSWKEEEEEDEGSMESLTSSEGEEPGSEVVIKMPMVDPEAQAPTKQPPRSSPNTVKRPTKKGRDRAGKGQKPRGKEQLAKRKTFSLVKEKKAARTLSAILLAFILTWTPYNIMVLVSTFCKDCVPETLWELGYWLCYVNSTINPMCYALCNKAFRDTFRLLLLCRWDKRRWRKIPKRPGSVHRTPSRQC
UniProt P14416, whole entry, looked up: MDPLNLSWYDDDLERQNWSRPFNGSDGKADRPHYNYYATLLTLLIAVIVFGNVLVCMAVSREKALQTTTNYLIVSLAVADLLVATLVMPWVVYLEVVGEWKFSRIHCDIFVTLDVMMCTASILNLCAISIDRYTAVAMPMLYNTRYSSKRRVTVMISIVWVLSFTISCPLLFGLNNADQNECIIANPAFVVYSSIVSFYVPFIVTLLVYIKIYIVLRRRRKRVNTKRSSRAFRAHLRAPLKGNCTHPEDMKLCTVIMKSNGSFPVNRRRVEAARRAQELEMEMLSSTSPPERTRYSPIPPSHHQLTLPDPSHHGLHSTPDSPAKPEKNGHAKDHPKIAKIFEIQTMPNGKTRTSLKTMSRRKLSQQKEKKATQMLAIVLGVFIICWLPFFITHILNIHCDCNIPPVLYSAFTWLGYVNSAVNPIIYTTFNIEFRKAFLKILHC
UniProt P28223, whole entry, looked up: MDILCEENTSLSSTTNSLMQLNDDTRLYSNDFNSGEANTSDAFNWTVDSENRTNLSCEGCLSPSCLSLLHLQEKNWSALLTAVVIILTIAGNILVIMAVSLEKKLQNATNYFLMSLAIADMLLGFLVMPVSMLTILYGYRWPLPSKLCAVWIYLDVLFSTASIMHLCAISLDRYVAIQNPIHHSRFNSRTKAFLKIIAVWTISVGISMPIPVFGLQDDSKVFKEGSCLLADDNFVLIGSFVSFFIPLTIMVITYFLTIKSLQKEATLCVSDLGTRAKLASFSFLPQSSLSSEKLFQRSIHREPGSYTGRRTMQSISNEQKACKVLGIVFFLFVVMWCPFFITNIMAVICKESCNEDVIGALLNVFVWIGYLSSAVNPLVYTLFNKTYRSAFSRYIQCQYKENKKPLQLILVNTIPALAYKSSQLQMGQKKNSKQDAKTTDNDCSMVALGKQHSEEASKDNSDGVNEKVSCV

[2] = p53 small molecule agonists, cell-based qHTS assay: qHTS cell viability counter screen (AID 1963581); also: nearly all actives have a fitted effect of over 45% in size; also: potency is read from the fitted curve at half-maximal effect
Procedure, shortened: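 Multiplexed with the reporter read, a CellTiter-Glo step (30 min, room temperature) gauges ATP-based viability of HCT-116 p53RE-bla cells after 16 h compound incubation at 37 C.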

[3] = p53 small molecule agonists, cell-based qHTS assay (AID 1963582; active = well fitted activation curve with a large enough effect in the signal ratio in the repeat runs, not every such curve was filed as active; inconclusive = weak or mixed curves; the % refers to the signal ratio; also: potency is read from the fitted curve at half-maximal effect; as to activation: % is scaled to controls: 0 for no effect and ±100 for the full control effect); conditions: HCT-116 p53RE-bla reporter, beta-lactamase FRET ratio, 16 h; activation: at 66 µM (top of the series) unless noted
Procedure, shortened: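 Beta-lactamase reporter cells (p53RE-bla) treated with compounds for 16 h at 37 C; FRET substrate, 2 h, room temperature; fluorescence intensity.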

[4] = target: Muscarinic acetylcholine receptor M1 (Homo sapiens) (UniProt P11229); assay: Cholinergic receptor muscarinic 1 (CHRM1) small molecule antagonists, cell-based qHTS assay (AID 1963588); also: nearly all actives have a fitted effect of over 40% in size; also: potency is read from the fitted curve at half-maximal effect
Procedure, shortened: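 Compounds were tested at 15 concentrations in three independent runs. Dye-loaded CHRM1-CHO cells were exposed 5 min at room temperature before stimulation by acetylcholine added at 50nM. Intracellular calcium was read kinetically on FDSS for 3 min.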

[5] = cAMP Responsive Elements (CRE) small molecule agonists, cell-based qHTS assay (AID 1963590); conditions: CRE-bla HEK293T, beta-lactamase FRET ratio, 3 h; activation: at 92.4 µM (top of the series) unless noted; also: potency is read from the fitted curve at half-maximal effect
Procedure, shortened: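 Quantitative HTS for CRE agonists: HEK 293T CRE-bla cells, overnight plating, 3 h compound incubation at 37 C/5% CO2, then 2 h room-temperature LiveBLAzer B/G FRET substrate loading.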

[6] = target: Beta-2 adrenergic receptor (Homo sapiens) (UniProt P07550); assay: Adrenergic beta2 receptor (ADRB2) small molecule agonists, cell-based qHTS assay (AID 1963593); conditions: CHO-ADRB2 cells, cAMP HTRF, 30 min; also: potency is read from the fitted curve at half-maximal effect;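 as to activation: CHO cells stably overexpressing human ADRB2; % is scaled to controls: 0 for no effect and ±100 for the full control effect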
Procedure, shortened: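 CHO cells stably over-expressing ADRB2 were plated overnight at 37C, then dosed with compounds plus a stimulation mix containing 100uM IBMX and 25uM Ro-20-1724 for 0.5hr at room temperature. cAMP was measured by HTRF competition, 1hr.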

[7] = target: D(2) dopamine receptor (Homo sapiens) (UniProt P14416); assay: Dopamine D2 receptor (DRD2) small molecule antagonists, cell-based qHTS assay (AID 1963595; active = well fitted inhibition curve with a large enough effect in the signal ratio in the repeat runs, with a control signal flat; inconclusive = weak or mixed curves, or effect the other way; the % refers to the signal ratio; also: potency is read from the fitted curve at half-maximal effect; as to activity change, negative = inhibition: % is scaled to controls: 0 for no effect and ±100 for the full control effect); conditions: HEK293-DRD2 cAMP HTRF antagonist mode; activity change, negative = inhibition: at 92.4 µM (top of the series) unless noted
Procedure, shortened: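 Readout: HTRF cAMP, cAMP-d2 competing with cellular cAMP for anti-cAMP cryptate, read after 1 h. Cells: DRD2-HEK293. Conditions: 0.1 mM Ro20-1724, 12 nM quinpirole, 200 nM NKH477, 30 min RT.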

[8] = p53 small molecule agonists, cell-based qHTS assay with human liver microsomes: qHTS cell viability counter screen (AID 1963579); also: nearly all actives have a fitted effect of over 45% in size; also: potency is read from the fitted curve at half-maximal effect
Procedure, shortened: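 Viability of p53RE-bla cells is measured as CellTiter-Glo luminescence following a 16 h, 37 C incubation with compound, liver microsomes from human donors and NADPH.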

[9] = target: 5-hydroxytryptamine receptor 2A (Homo sapiens) (UniProt P28223); assay: 5-hydroxytryptamine receptor 2A (HTR2A) small molecule antagonists, cell-based qHTS assay (AID 1963586); also: potency is read from the fitted curve at half-maximal effect; nearly all actives have a fitted effect of over 45% in size
Procedure, shortened: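 CHO cells stably expressing human HTR2A were plated for 18 h at 37 C, then loaded with calcium dye for 1 h. Compounds were preincubated 5 min at room temperature before DOI (4 nM solution) was added. Kinetic fluorescence was read for 3 min.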

[10] = target: Muscarinic acetylcholine receptor M1 (Homo sapiens) (UniProt P11229); assay: Cholinergic receptor muscarinic 1 (CHRM1) small molecule agonists, cell-based qHTS assay (AID 1963589); also: nearly all actives have a fitted effect of over 35% in size; also: potency is read from the fitted curve at half-maximal effect; as to activation: % is scaled to controls: 0 for no effect and ±100 for the full control effect
Procedure, shortened: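 qHTS, 15-point titration, 3 independent runs: compounds pin-transferred onto dye-loaded CHRM1-CHO cells (human M1), calcium fluorescence followed every second to detect agonism.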

[11] = cAMP Responsive Elements (CRE) small molecule antagonists, cell-based qHTS assay (AID 1963591; active = well fitted inhibition curve with a large enough effect in the signal ratio in the repeat runs, not every such curve was filed as active; inconclusive = weak or mixed curves, or effect the other way; the % refers to the signal ratio; also: potency is read from the fitted curve at half-maximal effect); conditions: CRE-bla HEK293T, beta-lactamase FRET ratio; activity change, negative = inhibition: at 92.4 µM (top of the series) unless noted
Procedure, shortened: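 Fluorescence intensity from cleaved LiveBLAzer B/G substrate (2 h, room temperature) quantified CRE-bla activity in HEK 293T cells exposed 3 h to compound with 0.25 uM final NKH477.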

[12] = target: D(2) dopamine receptor (Homo sapiens) (UniProt P14416); assay: Dopamine D2 receptor (DRD2) small molecule agonists, cell-based qHTS assay (AID 1963594); conditions: HEK293-DRD2 cAMP HTRF, agonist mode, 30 min; activation: at 92.4 µM (top of the series) unless noted; also: % is scaled to controls: 0 for no effect and ±100 for the full control effect; nearly all actives have a fitted effect of over 35% in size
Procedure, shortened: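 HEK293 cells stably expressing human DRD2, pre-treated with PDE inhibitor Ro20-1724 (0.1 mM final) and compound 10 min at room temperature, then stimulated with NKH477 (200nM […]) for 30 min. cAMP read by HTRF (665/620 nm).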

[13] = target: Beta-2 adrenergic receptor (Homo sapiens) (UniProt P07550); assay: Adrenergic beta2 receptor (ADRB2) small molecule antagonists, cell-based qHTS assay (AID 1963592); conditions: CHO-ADRB2 cells, isoproterenol-stimulated cAMP HTRF ratio, 0.5 h; activity change, negative = inhibition: at 92.4 µM (top of the series) unless noted; also: % is scaled to controls: 0 for no effect and ±100 for the full control effect; nearly all actives have a fitted effect of over 50% in size
Procedure, shortened: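 Assay format: CHO-ADRB2 cells, 18-20hr seeding at 37C/5% CO2, then compound plus 1nM isoproterenol agonist mix for 0.5hr RT. Homogeneous time-resolved fluorescence cAMP detection after 1hr, expressed as 665/615 nm ratio.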

[14] = activation: at 92.4 µM (top of the series) unless noted

Question: Which Potency [1] does the source give for `O=C(O)c1cc(O)c2ccccc2c1O` here?
Answer: inactive

Question: And the Potency [2]?
Answer: inactive

Question: And the activation [3]?
Answer: inconclusive: 13.7%

Question: And the Potency [4]?
Answer: inactive

Question: What about the Potency [5] of the same compound?
Answer: inconclusive: 15.4 µM [rising, full curve]

Question: And the Potency [6, 14]?
Answer: inconclusive: 61.1 µM [activator, partial curve, poor fit]

Question: What about the activity change, negative = inhibition [7] of the same compound?
Answer: inconclusive: -0.355%

Question: Which Potency [1] does the source give for `CCN(CC#N)c1cccc(C)c1` here?
Answer: inactive

Question: For `C=CCn1c(=O)n([C@@H]2O[C@H](CO)[C@@H](O)[C@H]2O)c2nc(N)[nH]c(=O)c21`, which Potency [8] is on record?
Answer: inconclusive: 141 nM [rising, partial curve, poor fit]

Question: What about the activation [6, 14] of the same compound?
Answer: inconclusive: -5.98% [at 42.5 µM]

Question: What about the Potency [7] of the same compound?
Answer: inactive

Question: Which results are given for `CN(C)C(=O)C1(N2CCCCC2)CCN(CC[C@@]2(c3ccc(Cl)c(Cl)c3)CN(C(=O)c3ccccc3)CCO2)CC1`?
Answer: Potency [1]: inconclusive: 48 µM [cytotoxic, single point]; Potency [2]: inconclusive: 42.8 µM [cytotoxic, single point]; Potency [3]: inconclusive: 48 µM [single point]; Potency [9]: inconclusive: 0.248 µM [inhibitor]; Potency [4]: inconclusive: 39.3 µM [inhibitor]; Potency [10]: inactive; Potency [5]: inconclusive: 57.1 µM [rising, partial curve]; Potency [11]: inconclusive: 57.1 µM [rising, partial curve]; Potency [6, 14]: inconclusive: 1.61 µM [inhibitor, partial curve, poor fit]; activation [12]: inconclusive: -21.8%; Potency [7]: active: 64.1 µM

Question: Which Potency [8] does the source give for `C[C@H]1C[C@H]2[C@@H]3CCC4=CC(=O)C=C[C@]4(C)[C@@]3(F)[C@@H](O)C[C@]2(C)[C@@]1(O)C(=O)CO` here?
Answer: active: 793 nM

Question: What about the activation [6, 14] of the same compound?
Answer: inconclusive: -30.7%

Question: And the activation ([6]; at 42.5 µM (top of the series))?
Answer: inactive: -15.6%

Question: And the Potency [12]?
Answer: inactive

Question: For `CCCN1CCCC[C@H]1C(=O)Nc1c(C)cccc1C`, which Potency [1] is on record?
Answer: inactive

Question: What does the source list for `CCCCCCCCn1sc(Cl)c(Cl)c1=O`?
Answer: Potency [1]: active: 36.3 µM; Potency [2]: inconclusive: 4.58 µM [cytotoxic, single point]; activation [3]: inconclusive: 18.9%; Potency [9]: inconclusive: 14.9 µM [inhibitor, full curve, poor fit]; Potency [5]: inconclusive: 27.3 µM [fluorescent]; Potency [11]: inconclusive: 17.2 µM [fluorescent, full curve, poor fit]; Potency [7]: active: 27.3 µM

Question: Which Potency [1] does the source give for `C[C@]12CC[C@@H]3c4ccc(O)cc4CC[C@H]3[C@@H]1CC[C@H]2O` here?
Answer: inconclusive: 18.2 µM [rising, single point]

Question: And the Potency [2]?
Answer: inconclusive: 12.9 µM [rising, full curve, poor fit]

Question: And the Potency [3]?
Answer: inconclusive: 1.65 µM [fluorescent, full curve, poor fit] and inconclusive: 21.2 µM [fluorescent]

Question: And the Potency [6, 14]?
Answer: inconclusive: 69.8 µM [inhibitor, partial curve, poor fit] and inactive

Question: What does the source list for `CCCOC(=O)c1ccc(O)cc1`?
Answer: Potency [1]: inconclusive: 51.3 µM [rising, single point]; Potency [2]: inconclusive: 4.32 µM; Potency [3]: inconclusive: 0.001 µM [rising, full curve, poor fit]; Potency [4]: inactive; Potency [11]: inactive; activity change, negative = inhibition [13]: inconclusive: -14.5%; Potency [6, 14]: inconclusive: 2.73 µM [cytotoxic, single point]

Question: With `CC/C=C(\C(=O)N[C@@H]1C(=O)N2C(C(=O)OCOC(=O)C(C)(C)C)=C(COC(N)=O)CS[C@H]12)c1csc(N)n1` as the compound, how does the Potency [8] read?
Answer: inconclusive: 281 nM [rising, partial curve, poor fit]

Question: What about the activation [6, 14] of the same compound?
Answer: inconclusive: -32.9% [at 42.5 µM]

Question: What about the activation ([6]; at 42.5 µM (top of the series)) of the same compound?
Answer: inactive: 2.25%

Question: With `CC(=O)O[C@H]1C[C@@H]2CC[C@@]1(C)C2(C)C` as the compound, how does the Potency [8] read?
Answer: inactive

Question: What about the activation [6, 14] of the same compound?
Answer: inconclusive: -0.0088%

Question: For `Nc1ncnc(Nc2ccccc2)n1`, which Potency [8] is on record?
Answer: inconclusive: 25100 nM [rising, single point]

Question: And the Potency [7]?
Answer: inactive

Question: For `CNC(=O)NC`, which Potency [8] is on record?
Answer: inactive

Question: What about the activation [6, 14] of the same compound?
Answer: inconclusive: 5.16%

Question: And the Potency [7]?
Answer: inactive

Question: Which results are given for `COc1ccc(/C=C/S(=O)(=O)NC(=O)c2ccc(C)cc2Cl)cc1`?
Answer: Potency [1]: inconclusive: 18.2 µM [rising, partial curve]; Potency [2]: inconclusive: 1.82 µM [rising, partial curve, poor fit]; Potency [3]: inconclusive: 2.57 µM [fluorescent, full curve, poor fit]; activity change, negative = inhibition [11]: inconclusive: 20.3%; Potency [6, 14]: inactive

Question: Which results are given for `Cc1ccc2c(c1)C(=O)OC2=O`?
Answer: Potency [1]: inactive; Potency [2]: inconclusive: 4.58 µM [cytotoxic, single point]; Potency [3]: inactive; Potency [10]: inconclusive: 436 nM [rising, full curve, poor fit]; activation [6, 14]: inconclusive: -6.39%

Source: PubChem BioAssay (Tox21)
